In patent US8927063B2, “Compositions for the treatment of timber and other wood substrates” (TimTechChem International Limited, priority 2008, dated 2015):

Legend:
[1] = Example 2: soak impregnation, uptake and dimensional swelling of wood pieces; design: species or system Pinus ponderosa; settings: for Uptake: Pinus ponderosa 38.6x38.6x72 mm submerged two to four days; for Radial Swelling / Tangential Swelling / Volumetric Swelling: after soak and two to four days in sealed containers; for soaking time to achieve the uptakes of Table 1: submerged wood pieces
[2] = Example 1: dip impregnation of wood and solvent loss by evaporation (odour); design: species or system Pinus radiata

SMILES | Uptake [1] [L/m^3] | Radial Swelling [1] [%] | Tangential Swelling [1] [%] | Volumetric Swelling [1] [%] | soaking time to achieve the uptakes of Table 1 [1] | Uptake ([2]; Pinus radiata 90x45x360 mm dipped for two minutes, average of two pieces) [L/m^3] | average uptake ([2]; Pinus radiata dipped for two minutes) [g] | odour of solvent in wood ([2]; after a further 24 hours exposure) | odour of solvent in wood ([2]; after two days of evaporation in sheltered outside environment)
O [Water, water, reference compound] | 147 | 2.6 | 3.3 | 6.0 | within two days | – | – | – | –
CCOC(C)=O [ethyl ethanoate] | 130 | 0.8 | 3.7 | 4.5 | within two days | – | – | – | –
CC(=O)OCCC(C)C [iso-pentyl ethanoate] | 115 | 0.3 | 0.5 | 0.8 | four days | – | – | – | –
CCCCOC(C)=O [n-butyl ethanoate] | 130 | 0.2 | 0.7 | 0.9 | – | – | – | – | –
CCCOC(C)=O [n-propyl ethanoate] | 128 | 0.5 | 0.9 | 1.4 | within two days | 36 | 54 | no odour | faint or barely perceptible odour
